Results as given in patent publication US20210139574A1.
No constants are given. Whether binding was seen depends on the method and setting. Some results given as binding are weak or reduced against the parent protein; the word gives no strength.

Chains of the proteins cited; added tags and fusions are not shown. Lines headed by an entry give the natural chain unless they say otherwise; changes in a name come on top. A line that says so, or that is headed by a name, gives the form on record, which may keep a tag or linker.
pathological Tau from samples of human AD (lysate, Western blot) (P10636, form named): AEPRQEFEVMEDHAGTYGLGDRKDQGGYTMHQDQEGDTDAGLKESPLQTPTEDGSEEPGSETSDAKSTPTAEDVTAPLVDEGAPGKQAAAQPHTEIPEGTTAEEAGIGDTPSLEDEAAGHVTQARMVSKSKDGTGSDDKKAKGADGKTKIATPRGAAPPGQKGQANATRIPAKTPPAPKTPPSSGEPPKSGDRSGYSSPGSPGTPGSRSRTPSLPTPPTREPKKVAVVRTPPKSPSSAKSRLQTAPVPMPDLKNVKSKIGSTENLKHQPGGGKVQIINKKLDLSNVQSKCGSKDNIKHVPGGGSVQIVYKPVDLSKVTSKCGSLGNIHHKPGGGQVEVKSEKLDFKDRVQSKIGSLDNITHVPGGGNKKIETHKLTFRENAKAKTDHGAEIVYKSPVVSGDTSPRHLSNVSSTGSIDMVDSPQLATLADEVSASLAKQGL

Columns and labels:
[1] = molecular target: Tau in human brain samples without Tau pathology (AT8 negative tissues) (human) (UniProt P10636); test: immunostaining of human brain cryosections, negative Tau pathology samples
[2] = molecular target: pathological Tau in cryosections of human brain with positive Tau pathology (AT8 positive samples) (human) (UniProt P10636); test: immunostaining of human brain cryosections, positive Tau pathology samples
[3] = molecular target: pathological Tau from samples of human AD (lysate, Western blot) (human) (UniProt P10636); test: Western blot of brain lysate (20 ug protein per lane, SDS-PAGE, PVDF), chemiluminescent read-out
[4] = molecular target: pathological Tau from samples of human PSP (lysate, Western blot) (human) (UniProt P10636); test: Western blot of human PSP lysate
[5] = molecular target: pathological Tau from samples of human AD (lysate, Western blot) (human) (UniProt P10636); test: Western blot of human AD lysate

| binding [1] | binding [2] | binding [3] | binding [4] | binding [5] | Binder |
| --- | --- | --- | --- | --- | --- |
| binds | binds |  |  |  | humanized AB1 having a VL of SEQ ID No.: 11 and VH of SEQ ID No.: 14 (antibody, V domains shown) VH: ELQLQESGPGLVKPSETLSLTCTVSGIDLSTWRMNWIRQPPGKGLEWIGIIGTGGRTYYANWAKGRVTISKDTSKNQVSLKLSSVTAADTAVYYCARLGANNQGYPLDLWGQGTLVTVSS VL: DIQMTQSPSSLSASVGDRVTITCQASQSVSSYLAWYQQKPGKAPKLLIYAASYLASGVPSRFSGSGSGTDFTLTISSLQPEDFATYYCQQGYTRTDIDNTFGGGTKVEIK |
| binds | binds |  |  |  | humanized AB1 having a VL of SEQ ID No.: 11 and VH of SEQ ID No.: 15 (antibody, V domains shown) VH: ELQLQESGPGLVKPSETLSLTCTVSGIDLSTWRMNWIRQPPGKGLEWIGIIGTGGRTYYANWAKGRVTISKDTSKNQVSLKLSSVTAADTAVYYCARLGANNAGYPLDLWGQGTLVTVSS VL: DIQMTQSPSSLSASVGDRVTITCQASQSVSSYLAWYQQKPGKAPKLLIYAASYLASGVPSRFSGSGSGTDFTLTISSLQPEDFATYYCQQGYTRTDIDNTFGGGTKVEIK |
|  |  | binds | binds | binds | AB1 having a murinised VL of SEQ ID NO: 9 and a murinised VH of SEQ ID NO.: 10 (antibody, V domains shown) VH: QVQLKESGPGLVAPSQSLSITCTVSGIDLSTWRMNWVRQPPGKGLEWIGIIGTGGRTYYANWAKGRFSISKDSTQVFLKMNSLQTEDTATYFCARLGANNNGYPLDLWGAGTTVTVSS VL: DVVMTQSPASLAVSLGQRATISCQASQSVSSYLAWYQQKPGQPPKLLIYAASYLASGVPSRFKGSGSGTEFTLNIHPVEEEDAATYYCQQGYTRTDIDNTFGGGTKLEIK |
